According to US8404644:
No constants are given. Whether binding was seen depends on the method and setting. Binding calls can cover weak binding; strength is not graded here.

Target: ovine βB2 crystallin (ovine)
Test: SDS PAGE under non-reducing conditions (homodimer)

With “ovine βB2 crystallin (from UniProt A0ACI6QA35 2-204)” the binding was “binds”.
